The values below come from publication PMC9399289.

For series [1], the system named is iron-responsive protein (IRP). In words: EMSA. The settings on record: EMSA: 10 mM Tris-HCl pH 7.5, 50 mM NaCl, 0.5 mM DTT, 0.05 mM EDTA, 3% glycerol, 0.05 mg/ml BSA (or 50 mM Na/K PO4 pH 6.0, 50 mM NaCl, 5 mM DTT), on ice, commercial protein. On the technique in general: A gel shift assay detects complexes by their altered migration in electrophoresis.
The target in series [2] is GST-SDE2-FLAG WT (human) (UniProt Q6IQ49). In words: EMSA. To be noted: EMSA: 10 mM Tris-HCl pH 7.5, 50 mM NaCl, 0.5 mM DTT, 0.05 mM EDTA, 3% glycerol, 0.05 mg/ml BSA (or 50 mM Na/K PO4 pH 6.0, 50 mM NaCl, 5 mM DTT), on ice; recombinant protein; residues 1-451; protein details: N-term GST, C-term FLAG; label: 5' 6-FAM on strand 1.
In series [3] the target is T1, GST-SDE2-FLAG ΔSAP del395-427 (human) (UniProt Q6IQ49).
T1 sequence (looked up): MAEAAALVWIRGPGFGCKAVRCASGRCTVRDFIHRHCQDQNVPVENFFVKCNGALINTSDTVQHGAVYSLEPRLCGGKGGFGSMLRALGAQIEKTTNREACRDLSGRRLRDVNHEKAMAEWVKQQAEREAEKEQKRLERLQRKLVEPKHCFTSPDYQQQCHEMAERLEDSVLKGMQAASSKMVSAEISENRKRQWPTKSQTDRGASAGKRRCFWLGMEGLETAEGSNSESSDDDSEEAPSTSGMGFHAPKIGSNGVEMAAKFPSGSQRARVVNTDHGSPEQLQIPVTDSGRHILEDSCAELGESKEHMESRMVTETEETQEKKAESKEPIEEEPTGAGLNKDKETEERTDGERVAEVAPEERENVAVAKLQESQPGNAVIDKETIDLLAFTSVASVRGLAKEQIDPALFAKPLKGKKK
In words: EMSA. The settings on record: EMSA: 10 mM Tris-HCl pH 7.5, 50 mM NaCl, 0.5 mM DTT, 0.05 mM EDTA, 3% glycerol, 0.05 mg/ml BSA (or 50 mM Na/K PO4 pH 6.0, 50 mM NaCl, 5 mM DTT), on ice, recombinant protein, residues 1-451, protein details: N-term GST, C-term FLAG.

Series [4] has as its target GST-SDE2 KK K444A,K447A (human) (UniProt Q6IQ49). Briefly: EMSA. To be noted: 50-200 nM protein, 20 nM DNA; EMSA: 10 mM Tris-HCl pH 7.5, 50 mM NaCl, 0.5 mM DTT, 0.05 mM EDTA, 3% glycerol, 0.05 mg/ml BSA (or 50 mM Na/K PO4 pH 6.0, 50 mM NaCl, 5 mM DTT), on ice; recombinant protein; residues 1-451; protein details: N-term GST; label: 5' 6-FAM; single-stranded DNA.
In series [5] the target is T2, GST-SDE2 ΔCTT del428-451 (human) (UniProt Q6IQ49).
T2 sequence (looked up): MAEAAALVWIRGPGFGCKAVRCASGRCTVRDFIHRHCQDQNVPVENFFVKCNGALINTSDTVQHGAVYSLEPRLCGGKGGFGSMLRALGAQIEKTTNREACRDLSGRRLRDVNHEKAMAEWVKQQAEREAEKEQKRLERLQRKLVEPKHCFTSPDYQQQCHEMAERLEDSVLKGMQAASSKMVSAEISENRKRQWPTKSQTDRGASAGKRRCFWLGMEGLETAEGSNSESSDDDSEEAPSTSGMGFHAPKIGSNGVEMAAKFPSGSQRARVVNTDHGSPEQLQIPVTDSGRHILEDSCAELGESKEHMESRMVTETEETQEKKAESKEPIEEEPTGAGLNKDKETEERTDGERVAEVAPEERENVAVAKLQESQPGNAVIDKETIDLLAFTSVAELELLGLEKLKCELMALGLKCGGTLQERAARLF
In words: EMSA. To be noted: 50-200 nM protein, 25 nM DNA; EMSA: 10 mM Tris-HCl pH 7.5, 50 mM NaCl, 0.5 mM DTT, 0.05 mM EDTA, 3% glycerol, 0.05 mg/ml BSA (or 50 mM Na/K PO4 pH 6.0, 50 mM NaCl, 5 mM DTT), on ice; recombinant protein; residues 1-427; protein details: N-term GST; label: 5' 6-FAM; single-stranded DNA.

Series [6] has as its target GST-SDE2SAP (human) (UniProt Q6IQ49). In words: fluorescence anisotropy. To be noted: barely above background, no plateau, Kd not calculated; anisotropy: 50 mM Na/K PO4 pH 6.0, 50 mM NaCl, 5 mM DTT, 1 uM DNA; recombinant protein; residues …; protein details: N-term GST; label: 5' 6-FAM on strand 1.
Series [7] has the same target. In words: EMSA. To be noted: free-probe loss; EMSA: 10 mM Tris-HCl pH 7.5, 50 mM NaCl, 0.5 mM DTT, 0.05 mM EDTA, 3% glycerol, 0.05 mg/ml BSA (or 50 mM Na/K PO4 pH 6.0, 50 mM NaCl, 5 mM DTT), on ice; recombinant protein; residues 350-451; protein details: N-term GST; label: 5' 6-FAM on strand 1.
Where [8] appears, read: 200 nM protein, 50 nM DNA, label: 5' 6-FAM on strand 1.

For some of these results: Negatives hold for the conditions tested. For some of these results: At least one verdict was read from the data and is not stated in words by the source. For some of these results: Protein sequences can lack the tags named with them. For some of these results: Weaker means in comparison with the reference protein, sequence or condition of that experiment. For some of these results: Construct, isoform or probe ends are uncertain for at least one entry.

In the case of UCCUGCUUCAACAGUGCUUGGACGGAAC [IRE RNA], the binding result in series [1] (competed by 1 uM unlabeled IRE RNA, label: 3' biotin) is listed as “binds”.
Consider “GACGCTGCCGAATTCTACCAGTGCCTTGCTAGGACATCTTTGCCCACCTGCAGGTTCACCC / ATCGATAGTCGGATCCTCTAGACAGCTCCATGTAGCAAGGCACTGGTAGAATTCGGCAGCGT [splayed-arm DNA (EMSA1/EMSA5)]”, for which the binding result in series [2] is on record as “binds”; in series [3] (setting [8]), “no binding”.
Take “GACGCTGCCGAATTCTACCAGTGCCTTGCTAGGACATCTTTGCCCACCTGCAGGTTCACCC [60-mer ssDNA (EMSA1)]”: the binding result in series [4] is on record as “binds more weakly”; in series [3] (50-200 nM protein, 25 nM DNA, abrogation complete only when CTT is also deleted, label: 5' 6-FAM, single-stranded DNA), “binds more weakly”; in series [1] (label: 5' 6-FAM, single-stranded DNA), “no binding”; in series [5], “binds more weakly”.
Take “GACGCTGCCGAATTCTACCAGTGCCTTGCTAGGACATCTTTGCCCACCTGCAGGTTCACCC (double strand) [60-mer dsDNA (EMSA1/EMSA2)]”: the binding result in series [6] was “binds more weakly”; in series [3] (setting [8]) it was “no binding”; in series [7] it was “binds more weakly”.
